Results taken from the supplement of paper PMC10470496.
Structures can show the parent of a compound that is named as a salt. The list shows a part of the results. Single values are uncertain, as repeats are few or missing.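 The three strains are clinical Candida auris isolates from the CDC resistance isolate bank, from clades III, IV and I, grown in RPMI-1640 at 35°C. Growth is background-corrected OD600 relative to vehicle-only wells on the same plate; a hit meant over 50% inhibition in at least two strains plus a plate-corrected B-score above 0.1.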

test system: C. auris AR-387; assay: growth relative to vehicle control (OD600 ratio) (fraction); higher = less inhibition; conditions: 10 µM; 24 h

SMILES | growth
OC(Cn1cncn1)(Cn1cncn1)c1ccc(F)cc1F [Fluconazole] | 0.27
C#Cc1cccc(Nc2ncnc3cc(OC)c(OCCCCCCC(=O)NO)cc23)c1 | 1.14
CCCc1nc(C)c2c(=O)nc(-c3cc(S(=O)(=O)N4CCN(CC)CC4)ccc3OCC)[nH]n12 [Vardenafil HCl Trihydrate] | 0.87
CCn1cc(C(=O)O)c(=O)c2cc(F)c(N3CCNCC3)nc21 [Enoxacin] | 1.07
